Results published in patent US20100330126A1, “Attenuated malaria blood-stage vaccine” (priority 2009, published 2010).
For some assays here: At least one read-out could not be matched to a standard name with certainty. At least one structure is not confirmed: it was looked up by name or label, or the drawing left a doubt.

What was measured:
P. falciparum PNP = target: T1, P. falciparum PNP (Plasmodium falciparum, UniProt Q8I3X4); test: Phosphorylase activity assay, kinetic constants of PfPNP; type: biochemical; settings: substrate of P. falciparum PNP
T1 sequence (Q8I3X4 1-245): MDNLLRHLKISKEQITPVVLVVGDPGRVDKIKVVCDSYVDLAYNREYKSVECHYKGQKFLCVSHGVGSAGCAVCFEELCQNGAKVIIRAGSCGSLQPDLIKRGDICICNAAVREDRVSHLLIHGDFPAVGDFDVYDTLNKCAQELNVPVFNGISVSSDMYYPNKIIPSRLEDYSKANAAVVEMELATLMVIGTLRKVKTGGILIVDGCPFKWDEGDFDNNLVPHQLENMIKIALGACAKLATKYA
Experimental: (§1) Enzymatic Assays and Determination of Kinetic Constants. All phosphorylase activity assays were performed with purified enzyme in 50 mM KPO4, pH 7.4 as described^1. Briefly, phosphorylysis of inosine, 2′-deoxyinosine, and 5′-methylthioinosine was measured in a coupled assay with 115 milliunits/ml xanthine oxidase to convert hypoxanthine into uric acid. Uric acid formation was followed by spectrophotometric measurement at 293 nm (E293=12.9 mM^−1 cm^−1). Phosphorylysis of guanosine to guanine was monitored by measuring the disappearance of guanosine at 258 nm (E258=5.2 mM^−1 cm^−1). Adenosine and 5′-methylthioadenosine phosphorylase activities were measured by following the disappearance of the substrate at 265 nm (E256=1.9 mM^−1 cm^−1). Uridine phosphorylase activity was measured by following the conversion of uridine to uracil at 272 nm (E260=2.9 mM^−1 cm^−1). The Michaelis constant Km was determined as the substrate concentration at ½ the maximum velocity. The kcat was determined for each substrate by fits of substrate saturation data to the Michaelis-Menten equation. Values for kcat assume one catalytic site per subunit and are expressed as moles of product per second per mole of subunit.

P. yoelii PNP = test: Phosphorylase activity assay, kinetic constants of recombinant PyPNP; type: biochemical; settings: substrate of P. yoelii PNP
Description: Expression, Purification, and Characterization of PyPNP. Recombinant PyPNP was expressed with a C-terminal 6×His tag and the c-myc epitope and purified from induced bacterial culture by nickel affinity chromatography under native conditions. Like PfPNP, recombinant PyPNP elutes from gel filtration chromatography as a single peak consisting of homohexameric protein (≈180 kDa; data not shown). On a denatured SDS-PAGE gel, the protein ran as a single band with a molecular mass of 29.94 kDa. […] The catalytic efficiencies (kcat/Km) of PyPNP for these substrates were very similar to those observed in PfPNP (Table 2).
Cloning and Expression of P. yoelii PNP. PyPNP was identified as a protein of 244 amino acids and 26.943 kDa by protein sequence homology to PfPNP (gene PY04622; PlasmoDB.org). The PyPNP open reading frame (ORF) sequence was amplified by PCR from genomic DNA of P. yoelii strain YM with primers PyPNP-F (5′-[…]-3′) (SEQ ID NO:8) and PyPNP-R (5′-[…]-3′) (SEQ ID NO:9). The 729 by PCR product was ligated into a pTrcHis2-TOPO vector (Invitrogen) and expressed in E. coli strain TOP 10. Recombinant PyPNP with a C-terminal 6×His tag and the c-myc epitope was induced with 1 mM IPTG at 37° C. for 10 h and purified by nickel chromatography. The purified PyPNP was >95% homogeneous based on denaturing polyacrylamide gel electrophoresis and staining with Coomassie blue. Protein concentration was measured by Bradford protein assay (Bio-Rad).
as §1

| Compound | kcat/Km (P. falciparum PNP) | kcat/Km (P. yoelii PNP) |
| --- | --- | --- |
| CSc1ncnc2c1ncn2[C@@H]1O[C@H](CO)[C@@H](O)[C@H]1O [Methylthioinosine] | 240000 M⁻¹ s⁻¹ | 680000 M⁻¹ s⁻¹ |
| OC[C@H]1O[C@@H](n2cnc3c(O)ncnc32)C[C@@H]1O [2′-deoxyinosine] | – | 15000 M⁻¹ s⁻¹ |
| OC[C@H]1O[C@@H](n2cnc3c(O)ncnc32)[C@H](O)[C@@H]1O [Inosine] | – | 400000 M⁻¹ s⁻¹ |
| Nc1nc2c(ncn2[C@@H]2O[C@H](CO)[C@@H](O)[C@H]2O)c(=O)[nH]1 [Guanosine] | – | 420000 M⁻¹ s⁻¹ |
